The series in a line: general procedure: Fmoc solid-phase peptide synthesis; Fmoc-Asp(NovaSynTGA)-OAll resin; HBTU/DIPEA.

In turn, CTH36-c(RGDfK) returned a conjugation yield (conjugation step) of 65%.
For the setting “late stage modification step”, c(RGDfK)-TCO gave a step yield of 50%.

These data come from publication PMC8699488 (Cancers, 2021).
